The results in this text go back to publication PMC10418956.

The chains behind the UniProt entries cited, without tags or fusion partners.
UniProt P30186: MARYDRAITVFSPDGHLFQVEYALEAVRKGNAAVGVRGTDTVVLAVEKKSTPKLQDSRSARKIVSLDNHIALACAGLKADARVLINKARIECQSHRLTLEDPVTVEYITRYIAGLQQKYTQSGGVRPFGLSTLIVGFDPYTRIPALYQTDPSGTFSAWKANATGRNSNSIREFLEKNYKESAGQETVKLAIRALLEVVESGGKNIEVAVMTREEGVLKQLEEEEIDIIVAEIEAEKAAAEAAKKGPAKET

Where a chain is given by its changes, count along the chain named. No constants are given. Whether binding was seen depends on the method and setting. In cells and extracts the contact can be indirect. A yes stands for co-enrichment or nearness to the bait. Other partners may have been found. A no says only that the protein was not detected with the bait.

For test [1], the target named is T1, ATG5^K128R-TAP (Arabidopsis thaliana) (UniProt Q9FFI2).
T1 sequence: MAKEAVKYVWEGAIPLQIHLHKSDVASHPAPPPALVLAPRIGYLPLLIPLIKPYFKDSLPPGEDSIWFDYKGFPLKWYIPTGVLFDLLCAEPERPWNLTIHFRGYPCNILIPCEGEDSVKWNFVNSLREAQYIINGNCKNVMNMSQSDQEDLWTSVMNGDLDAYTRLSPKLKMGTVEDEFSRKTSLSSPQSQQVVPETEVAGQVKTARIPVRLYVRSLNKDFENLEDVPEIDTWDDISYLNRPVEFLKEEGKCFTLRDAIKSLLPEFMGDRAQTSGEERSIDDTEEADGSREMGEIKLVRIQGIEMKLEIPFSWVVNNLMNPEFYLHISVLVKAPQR
Description: affinity purification with mass spectrometry; tandem affinity purification (IgG Sepharose, PreScission protease, Ni Sepharose) of TAP-tagged bait expressed under the 2x35S promoter in Col-0, from protein extracts of fully expanded rosette leaves at the bolting stage, long day conditions; LC-MS/MS; hits enriched over the GFP-TAP control (fold change >= 1.5, p <= 0.05).

The target in test [2] is T2, ATG5-TAP (Arabidopsis thaliana) (UniProt Q9FFI2).
T2 sequence: T1 sequence with R128K
The test is described as above.

For ATG8, the binding entry in test [1] and in test [2] was “no binding” each time.
“20S proteasome subunit alpha D1 (from UniProt P30186 1-250)”: the binding result in test [1] and in test [2] was “binds” in each case.
